Results deposited as PubChem BioAssay AID1224830 (NIAID, 2016).

- Assay: 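Host factors that control LPS-induced TNF expression in human macrophages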 (primary screen)
- System: human THP-1 monocytic leukaemia cells, TNF dual-luciferase reporter clone, PMA-differentiated to macrophage-like cells
- Reagent: siRNA pool against human genes, 50 nM
- Duration: LPS for 4 h, given about 3 days after siRNA transfection
- Treatment: bacterial LPS (TLR4 ligand), 10 ng/ml
- Measurement: 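Ratio of firefly to renilla light, scaled to the plate median and expressed as a robust z-score per replicate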
- Direction: TNF reporter robust z-score: higher = stronger TNF reporter response to LPS
- Rule for the call: 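a well is active when its z-score exceeds 2.8 or falls below -1.5; control wells carry no call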
The deposit covers about 18,000 reagents; shown is a part drawn at random. Of all reagents, about 2,900 (16%) were called active. 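Calls are made per well; low scores hint the gene aids the LPS response, high scores that it dampens it.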 Repeated entries: four replicate wells of each siRNA pool. Reagent sequences are not shown.

gene knocked down	TNF reporter robust z-score	call
AKT1S1	-0.17	inactive
AKT1S1	0.75	inactive
AKT1S1	0.49	inactive
AKT1S1	0.7	inactive
SAR1A		inactive
KDM6A	-0.68	inactive
KDM6A	0.1	inactive
KDM6A	-0.64	inactive
KDM6A	-0.42	inactive
LOXL4	-0.09	inactive
LOXL4	0.7	inactive
LOXL4	-0.98	inactive
LOXL4	1.99	inactive
INS	-0.17	inactive
INS	0.38	inactive
INS	-1.04	inactive
INS	-0.72	inactive
KLHL32	-0.39	inactive
KLHL32	-0.59	inactive
KLHL32	0.14	inactive
KLHL32	-0.26	inactive
TGM1	-0.32	inactive
TGM1	-0.3	inactive
TGM1	-0.11	inactive
TGM1	-0.42	inactive
SPATA45	-0.57	inactive
SPATA45	-0.71	inactive
SPATA45	-0.62	inactive
ADARB2	0.59	inactive
ADARB2	-0.65	inactive
ADARB2	-0.57	inactive
ADARB2	-0.86	inactive
TSTD2	1.85	inactive
TSTD2	0.4	inactive
TSTD2	0.75	inactive
TSTD2	0.93	inactive
AHDC1	1.32	inactive
AHDC1	1.81	inactive
AHDC1	0	inactive
AHDC1	0.81	inactive
HSD17B4	-1.22	inactive
HSD17B4	-0.4	inactive
HSD17B4	-1.17	inactive
HSD17B4	-0.58	inactive
KLHL2	0.84	inactive
KLHL2	0.37	inactive
KLHL2	0.38	inactive
KLHL2	0.89	inactive
PPP1CB	0.45	inactive
PPP1CB	2.07	inactive
PPP1CB	-0.78	inactive
PPP1CB	0.4	inactive
MCTP2	-0.64	inactive
MCTP2	1.03	inactive
MCTP2	-0.1	inactive
MCTP2	1.48	inactive
PLLP	2.83	active
PLLP	4.05	active
PLLP	0.92	inactive
PLLP	2.23	inactive
FAM131B	3.25	active
FAM131B	6.29	active
FAM131B	2.78	inactive
FAM131B	4.11	active
PLEKHF1	-0.98	inactive
PLEKHF1	0	inactive
PLEKHF1	6.93	active
PLEKHF1	3.63	active
TXNDC15	1.78	inactive
TXNDC15	1.54	inactive
TXNDC15	2.05	inactive
TXNDC15	1.47	inactive
TFB2M	5.1	active
TFB2M	0.34	inactive
TFB2M	0.36	inactive
TFB2M	1.01	inactive
F13A1	1.01	inactive
F13A1	-0.91	inactive
F13A1	-0.54	inactive
F13A1	-0.17	inactive
OR8D2	-1.06	inactive
OR8D2	-1.04	inactive
OR8D2	-1.21	inactive
OR8D2	-1.39	inactive
KBTBD3	0.06	inactive
KBTBD3	0.61	inactive
KBTBD3	0.99	inactive
KBTBD3	0.33	inactive
HS2ST1	0.31	inactive
HS2ST1	1.32	inactive
HS2ST1	0.83	inactive
HS2ST1	-0.32	inactive
FCHSD2	-1.19	inactive
FCHSD2	-0.68	inactive
FCHSD2	-1.46	inactive
FCHSD2	-0.53	inactive
ADCY9	0.15	inactive
ADCY9	9.74	active
ADCY9	2.22	inactive
ADCY9	0.62	inactive
SIGLEC10	-1.43	inactive
SIGLEC10	-0.84	inactive
SIGLEC10	-0.91	inactive
SIGLEC10	-0.82	inactive
ELOA2	-1.3	inactive
ELOA2	-1.06	inactive
ELOA2	-0.63	inactive
ELOA2	-0.67	inactive
LSMEM1	-0.45	inactive
LSMEM1	-0.27	inactive
LSMEM1	-0.58	inactive
LSMEM1	0.15	inactive

Taken from above:
Result of SAR1A in “call”: inactive
